Results are given in words; binding and its absence hold for the method and conditions named. In cells and extracts the contact can be indirect. Some results given as binding are weak or reduced against the parent protein; the word gives no strength.
Key:
[1] = molecular target: Tet2, endogenous in mouse cortex (mouse (endogenous in cortex)) (UniProt Q4JK59); test: co-IP; mouse cortex lysates; anti-Tet2 or anti-Tet3 antibody or control IgG pre-coupled to protein A/G magnetic beads, 6-12 h at 4°C; western blot
[2] = molecular target: Tet3, endogenous in mouse cortex (mouse (endogenous in cortex)) (UniProt Q8BG87); test: as above

Chains of the proteins cited; added tags and fusions are not shown.
UniProt Q4JK59: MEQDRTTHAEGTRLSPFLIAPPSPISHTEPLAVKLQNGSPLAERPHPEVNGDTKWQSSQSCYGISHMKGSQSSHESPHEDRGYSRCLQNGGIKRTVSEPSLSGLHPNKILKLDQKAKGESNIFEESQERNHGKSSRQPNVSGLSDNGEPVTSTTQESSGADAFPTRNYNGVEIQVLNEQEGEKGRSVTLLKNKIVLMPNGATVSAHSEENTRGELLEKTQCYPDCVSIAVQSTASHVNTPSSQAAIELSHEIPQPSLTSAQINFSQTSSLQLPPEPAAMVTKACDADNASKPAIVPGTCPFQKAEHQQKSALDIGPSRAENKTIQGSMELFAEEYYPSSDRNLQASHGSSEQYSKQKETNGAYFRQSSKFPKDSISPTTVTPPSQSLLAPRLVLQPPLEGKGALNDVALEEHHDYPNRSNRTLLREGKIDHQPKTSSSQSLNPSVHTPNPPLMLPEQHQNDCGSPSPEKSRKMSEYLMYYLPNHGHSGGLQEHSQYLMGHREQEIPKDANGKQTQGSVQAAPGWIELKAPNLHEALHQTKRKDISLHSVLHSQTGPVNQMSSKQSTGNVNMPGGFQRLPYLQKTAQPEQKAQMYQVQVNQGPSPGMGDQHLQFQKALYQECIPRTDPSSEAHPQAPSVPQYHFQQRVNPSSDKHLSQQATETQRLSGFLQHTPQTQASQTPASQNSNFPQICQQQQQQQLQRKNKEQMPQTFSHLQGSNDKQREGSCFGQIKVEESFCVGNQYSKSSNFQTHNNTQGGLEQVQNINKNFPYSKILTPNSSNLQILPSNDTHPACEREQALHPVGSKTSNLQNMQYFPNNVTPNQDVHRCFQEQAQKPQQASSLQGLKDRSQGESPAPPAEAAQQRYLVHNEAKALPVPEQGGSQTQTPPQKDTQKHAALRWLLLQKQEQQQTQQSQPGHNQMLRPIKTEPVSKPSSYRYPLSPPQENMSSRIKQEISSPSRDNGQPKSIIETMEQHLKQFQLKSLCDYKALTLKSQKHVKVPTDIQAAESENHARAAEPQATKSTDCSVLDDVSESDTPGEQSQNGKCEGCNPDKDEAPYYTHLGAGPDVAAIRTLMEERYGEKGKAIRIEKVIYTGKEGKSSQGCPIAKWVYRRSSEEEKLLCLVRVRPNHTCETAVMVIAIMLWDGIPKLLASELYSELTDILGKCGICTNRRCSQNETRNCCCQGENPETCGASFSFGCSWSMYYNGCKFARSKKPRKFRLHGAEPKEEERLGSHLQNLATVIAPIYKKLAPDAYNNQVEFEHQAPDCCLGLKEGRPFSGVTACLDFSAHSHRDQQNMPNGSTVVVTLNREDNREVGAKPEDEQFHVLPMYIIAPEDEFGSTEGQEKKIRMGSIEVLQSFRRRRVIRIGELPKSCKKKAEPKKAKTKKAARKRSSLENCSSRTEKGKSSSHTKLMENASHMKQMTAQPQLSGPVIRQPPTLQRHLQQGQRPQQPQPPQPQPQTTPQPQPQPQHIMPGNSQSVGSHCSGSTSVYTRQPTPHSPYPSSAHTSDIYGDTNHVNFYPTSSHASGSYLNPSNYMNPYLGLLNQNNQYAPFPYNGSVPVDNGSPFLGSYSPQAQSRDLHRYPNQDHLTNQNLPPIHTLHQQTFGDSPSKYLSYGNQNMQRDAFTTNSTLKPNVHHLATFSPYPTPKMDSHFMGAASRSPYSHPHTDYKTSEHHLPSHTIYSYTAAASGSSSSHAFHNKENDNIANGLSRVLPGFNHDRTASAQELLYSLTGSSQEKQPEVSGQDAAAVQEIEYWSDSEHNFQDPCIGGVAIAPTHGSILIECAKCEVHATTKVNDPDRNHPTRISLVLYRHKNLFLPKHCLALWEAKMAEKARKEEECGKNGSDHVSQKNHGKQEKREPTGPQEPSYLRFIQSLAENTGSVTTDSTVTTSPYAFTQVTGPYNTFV
UniProt Q8BG87: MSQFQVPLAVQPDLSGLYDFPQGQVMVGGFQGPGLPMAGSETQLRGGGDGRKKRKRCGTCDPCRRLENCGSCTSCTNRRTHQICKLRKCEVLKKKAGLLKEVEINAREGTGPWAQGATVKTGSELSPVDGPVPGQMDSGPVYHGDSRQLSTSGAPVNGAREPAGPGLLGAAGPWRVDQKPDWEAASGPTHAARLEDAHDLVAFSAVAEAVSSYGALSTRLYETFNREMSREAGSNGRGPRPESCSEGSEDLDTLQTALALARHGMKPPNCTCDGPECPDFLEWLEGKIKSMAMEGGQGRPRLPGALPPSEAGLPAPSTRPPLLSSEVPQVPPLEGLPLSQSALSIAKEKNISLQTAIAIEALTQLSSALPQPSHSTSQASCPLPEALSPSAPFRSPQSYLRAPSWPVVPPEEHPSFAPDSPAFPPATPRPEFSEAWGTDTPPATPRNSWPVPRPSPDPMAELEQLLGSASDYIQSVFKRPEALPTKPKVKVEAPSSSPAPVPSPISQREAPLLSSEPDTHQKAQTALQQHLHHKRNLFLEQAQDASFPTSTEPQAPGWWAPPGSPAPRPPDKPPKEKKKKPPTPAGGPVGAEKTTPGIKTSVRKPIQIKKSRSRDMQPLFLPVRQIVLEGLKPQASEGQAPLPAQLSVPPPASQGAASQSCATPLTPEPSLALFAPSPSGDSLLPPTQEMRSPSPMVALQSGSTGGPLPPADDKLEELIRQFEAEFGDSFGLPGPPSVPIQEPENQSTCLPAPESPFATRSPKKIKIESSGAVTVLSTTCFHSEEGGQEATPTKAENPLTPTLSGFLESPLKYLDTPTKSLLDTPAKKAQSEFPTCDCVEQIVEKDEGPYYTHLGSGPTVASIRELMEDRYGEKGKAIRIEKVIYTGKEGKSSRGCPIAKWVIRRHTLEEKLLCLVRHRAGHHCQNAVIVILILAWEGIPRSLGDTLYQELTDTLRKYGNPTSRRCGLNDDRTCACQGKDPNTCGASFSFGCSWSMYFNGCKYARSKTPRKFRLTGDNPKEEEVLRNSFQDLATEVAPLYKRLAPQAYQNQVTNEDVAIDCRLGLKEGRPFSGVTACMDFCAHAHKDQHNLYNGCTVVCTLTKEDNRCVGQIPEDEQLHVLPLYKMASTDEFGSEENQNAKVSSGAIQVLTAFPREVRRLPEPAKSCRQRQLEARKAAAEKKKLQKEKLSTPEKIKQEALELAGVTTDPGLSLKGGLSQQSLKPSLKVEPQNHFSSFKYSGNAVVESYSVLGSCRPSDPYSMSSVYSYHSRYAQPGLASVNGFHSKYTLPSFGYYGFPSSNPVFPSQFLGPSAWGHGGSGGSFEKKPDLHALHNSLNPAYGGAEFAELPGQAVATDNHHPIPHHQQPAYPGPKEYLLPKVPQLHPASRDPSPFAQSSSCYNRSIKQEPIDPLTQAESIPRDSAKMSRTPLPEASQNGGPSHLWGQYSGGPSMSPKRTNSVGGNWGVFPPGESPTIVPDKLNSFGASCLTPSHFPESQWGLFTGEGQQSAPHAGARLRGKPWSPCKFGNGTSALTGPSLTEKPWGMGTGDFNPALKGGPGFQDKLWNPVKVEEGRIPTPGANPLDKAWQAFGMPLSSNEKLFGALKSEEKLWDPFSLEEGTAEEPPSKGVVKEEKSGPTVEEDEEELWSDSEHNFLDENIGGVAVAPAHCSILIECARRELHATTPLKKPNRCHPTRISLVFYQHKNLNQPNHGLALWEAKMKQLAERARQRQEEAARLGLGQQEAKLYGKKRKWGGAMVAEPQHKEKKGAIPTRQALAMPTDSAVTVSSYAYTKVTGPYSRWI

binding [1]: binds
binding [2]: binds
B1: Non-POU domain-containing octamer-binding (NONO) protein, endogenous in mouse cortex (protein, UniProt Q99K48 1-473)
chain: MQSNKAFNLEKQNHTPRKHHQHHHQQHHQQQQQQQQQQPPPPIPANGQQASSQNEGLTIDLKNFRKPGEKTFTQRSRLFVGNLPPDITEEEMRKLFEKYGKAGEVFIHKDKGFGFIRLETRTLAEIAKVELDNMPLRGKQLRVRFACHSASLTVRNLPQYVSNELLEEAFSVFGQVERAVVIVDDRGRPSGKGIVEFSGKPAARKALDRCSEGSFLLTTFPRPVTVEPMDQLDDEEGLPEKLVIKNQQFHKEREQPPRFAQPGSFEYEYAMRWKALIEMEKQQQDQVDRNIKEAREKLEMEMEAARHEHQVMLMRQDLMRRQEELRRMEELHNQEVQKRKQLELRQEEERRRREEEMRRQQEEMMRRQQEGFKGTFPDAREQEIRMGQMAMGGAMGINNRGAMPPAPVPPGTPAPPGPATMMPDGTLGLTPPTTERFGQAATMEGIGAIGGTPPAFNRPAPGAEFAPNKRRRY

From PMC10289295
